Read-outs that look alike come from different tables or passages of the source. Results are given in words; binding and its absence hold for the method and conditions named. Some results given as binding are weak or reduced against the parent protein; the word gives no strength.
Columns and labels:
Test in all cases: negative stain electron microscopy
[1] = target: Drosophila P5CS, purified from E. coli (Drosophila) (UniProt Q9VNW6)
[2] = target: Drosophila P5CS, purified from E. coli (Drosophila) (UniProt Q9VNW6); remark: listed apart in the source
[3] = target: Drosophila CTPS, purified from E. coli (Drosophila) (UniProt Q9VUL1)

Binder | binding [1] | binding [2] | binding [3]
Drosophila P5CS, purified from E. coli (enzyme, UniProt Q9VNW6 1-776, looked up) MLQNSFKLAQSLRNGFYRNAWRAFSSHGPRQPLVSPERRLEKAHPTFTERSQLKYARRLVVKLGSAVITREDNHGLALGRLASIVEQVAECHLEGREVMMVTSGAVAFGKQKLAQELLMSLSMRETLNPKDSKEFDGATLEPRAAAAVGQSGLMSLYDAMFAQYGVKIAQVLVTKPDFYNEETRNNLFCTLSELISLNIVPIINTNDAVSPPMFIRDDEPAGGARRGIPIKDNDSLSAMLAAEVQADLLILMSDVDGIYNKPPWEDGAKLMHTYTSDDSNSIEFGKKSKVGTGGMDSKVKAATWALDRGVSVVICNGMQEKAIKTIIGGRKVGTFFTEATESANAVPVEVMAENARTGSRQMQALTPAQRASAVNTLADLLVSREKFILDANAKDLAEAQKSGLAKPLLSRLSLNPAKLKNLSVGLKQIAEDSHKNVGRVLRRTRLADQLELKQVTVPIGVLLVIFESRPDSLPQVAALAMASANGLLLKGGKEAAHSNKALMELVKEALATVGAEHAVSLVSTREEISDLLSMENHIDLIIPRGSSDLVRSIQQQSLHIPVLGHAEGVCHVYIDRDADLEKALRIARDAKCDYPAACNAMETLLIHEDLMSGAIFGDVCNMLKREGVKIYAGPRLNQQLTFGPPAAKSLKHEYGALECCIEVVPSLDEAINHIHTYGSSHTDVIVTENDAAARQFLGSVDSACVFHNASSRFADGFRFGLGAEVGISTARIHARGPVGVEGLLTTKWILEGQDHAAADFAEGGGRTWLHETLPLD | binds weakly | binds weakly | 
Drosophila CTPS, purified from E. coli (enzyme, UniProt Q9VUL1 1-627) MKYILVTGGVISGVGKGVIASSFGTLLKSCGLDVTSIKIDPYINIDAGTFSPYEHGEVYVLDDGAEVDLDLGNYERFLDVTLHRDNNITTGKIYKLVIEKERTGEYLGKTVQVVPHITDAIQEWVERVAQTPVQGSSKPQVCIVELGGTIGDIEGMPFVEAFRQFQFRVKRENFCLAHVSLVPLPKATGEPKTKPTQSSVRELRGCGLSPDLIVCRSEKPIGLEVKEKISNFCHVGPDQVICIHDLNSIYHVPLLMEQNGVIEYLNERLQLNIDMSKRTKCLQQWRDLARRTETVRREVCIAVVGKYTKFTDSYASVVKALQHAALAVNRKLELVFIESCLLEEETLHSEPSKYHKEWQKLCDSHGILVPGGFGSRGMEGKIRACQWARENQKPLLGICLGLQAAVIEFARNKLGLKDANTTEIDPNTANALVIDMPEHHTGQLGGTMRLGKRITVFSDGPSVIRQLYGNPKSVQERHRHRYEVNPKYVHLLEEQGMRFVGTDVDKTRMEIIELSGHPYFVATQYHPEYLSRPLKPSPPFLGLILASVDRLNQYIQRGCRLSPRQLSDASSDEEDSVVGLAGATKSLSSLKIPITPTNGISKSCNGSISTSDSEGACGGVDPTNGHK |  |  | binds
